Test results as given in PMC12636710.
These are yes or no findings as the source states them, for the method shown. In cells and extracts the contact can be indirect. Some binding calls cover weakened binding; strength is not graded here.

Amino acid sequences for entries named in this document (tags omitted). Residues count along the entry.
UniProt P02649, residues 19-317: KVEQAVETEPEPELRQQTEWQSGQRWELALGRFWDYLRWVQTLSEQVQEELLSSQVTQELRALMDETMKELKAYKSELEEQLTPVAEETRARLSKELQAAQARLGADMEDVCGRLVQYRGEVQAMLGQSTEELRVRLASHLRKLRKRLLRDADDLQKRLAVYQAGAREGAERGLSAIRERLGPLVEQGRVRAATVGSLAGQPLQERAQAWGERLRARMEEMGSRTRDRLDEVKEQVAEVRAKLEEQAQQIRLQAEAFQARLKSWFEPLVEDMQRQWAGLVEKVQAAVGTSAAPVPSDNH

Molecular target: human apolipoprotein E, apoE3 isoform (ε3 allele) (human) (UniProt P02649)
Assay: co-IP

**Q.** How did the binding turn out when “prion protein (PrP) (from UniProt P04925 23-230)” was run?
**A.** Its binding is “binds”.
